# Results from the supplement of paper PMC12823440, “Inhibitors supercharge kinase turnover through native proteolytic circuits” (Nature, 2025).
# Amino acid sequences for entries named in this document (tags omitted). A change or cut given only in a name is not applied to a line headed by its entry.
# UniProt P00519, whole entry: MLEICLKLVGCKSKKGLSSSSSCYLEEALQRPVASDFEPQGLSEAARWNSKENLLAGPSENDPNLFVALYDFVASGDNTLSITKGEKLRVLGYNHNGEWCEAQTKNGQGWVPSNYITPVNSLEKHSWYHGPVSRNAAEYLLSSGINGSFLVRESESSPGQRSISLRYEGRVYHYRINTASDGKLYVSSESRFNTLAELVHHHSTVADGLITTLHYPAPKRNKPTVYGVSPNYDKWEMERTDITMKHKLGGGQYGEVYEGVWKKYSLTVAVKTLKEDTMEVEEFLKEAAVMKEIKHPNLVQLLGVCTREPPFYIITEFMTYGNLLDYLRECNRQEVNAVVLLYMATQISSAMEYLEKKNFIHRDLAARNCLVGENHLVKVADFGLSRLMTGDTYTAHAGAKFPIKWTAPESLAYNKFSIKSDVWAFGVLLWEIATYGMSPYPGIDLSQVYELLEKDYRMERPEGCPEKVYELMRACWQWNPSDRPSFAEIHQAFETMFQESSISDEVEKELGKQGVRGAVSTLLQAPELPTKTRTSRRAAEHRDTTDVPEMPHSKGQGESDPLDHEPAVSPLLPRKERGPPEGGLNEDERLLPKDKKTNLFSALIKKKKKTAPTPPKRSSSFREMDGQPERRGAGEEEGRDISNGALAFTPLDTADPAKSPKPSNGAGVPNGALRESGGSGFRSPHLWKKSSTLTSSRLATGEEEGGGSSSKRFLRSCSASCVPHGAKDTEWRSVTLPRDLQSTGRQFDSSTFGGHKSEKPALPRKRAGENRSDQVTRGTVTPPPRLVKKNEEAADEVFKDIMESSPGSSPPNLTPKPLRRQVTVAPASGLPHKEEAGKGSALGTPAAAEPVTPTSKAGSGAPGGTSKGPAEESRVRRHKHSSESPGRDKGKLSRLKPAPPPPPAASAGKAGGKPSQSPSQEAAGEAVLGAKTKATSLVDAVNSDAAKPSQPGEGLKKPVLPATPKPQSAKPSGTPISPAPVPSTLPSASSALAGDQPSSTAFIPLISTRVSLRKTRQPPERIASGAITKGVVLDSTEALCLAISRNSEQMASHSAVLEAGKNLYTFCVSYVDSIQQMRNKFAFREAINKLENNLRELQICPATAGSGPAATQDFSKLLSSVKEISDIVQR
# UniProt Q9UM73: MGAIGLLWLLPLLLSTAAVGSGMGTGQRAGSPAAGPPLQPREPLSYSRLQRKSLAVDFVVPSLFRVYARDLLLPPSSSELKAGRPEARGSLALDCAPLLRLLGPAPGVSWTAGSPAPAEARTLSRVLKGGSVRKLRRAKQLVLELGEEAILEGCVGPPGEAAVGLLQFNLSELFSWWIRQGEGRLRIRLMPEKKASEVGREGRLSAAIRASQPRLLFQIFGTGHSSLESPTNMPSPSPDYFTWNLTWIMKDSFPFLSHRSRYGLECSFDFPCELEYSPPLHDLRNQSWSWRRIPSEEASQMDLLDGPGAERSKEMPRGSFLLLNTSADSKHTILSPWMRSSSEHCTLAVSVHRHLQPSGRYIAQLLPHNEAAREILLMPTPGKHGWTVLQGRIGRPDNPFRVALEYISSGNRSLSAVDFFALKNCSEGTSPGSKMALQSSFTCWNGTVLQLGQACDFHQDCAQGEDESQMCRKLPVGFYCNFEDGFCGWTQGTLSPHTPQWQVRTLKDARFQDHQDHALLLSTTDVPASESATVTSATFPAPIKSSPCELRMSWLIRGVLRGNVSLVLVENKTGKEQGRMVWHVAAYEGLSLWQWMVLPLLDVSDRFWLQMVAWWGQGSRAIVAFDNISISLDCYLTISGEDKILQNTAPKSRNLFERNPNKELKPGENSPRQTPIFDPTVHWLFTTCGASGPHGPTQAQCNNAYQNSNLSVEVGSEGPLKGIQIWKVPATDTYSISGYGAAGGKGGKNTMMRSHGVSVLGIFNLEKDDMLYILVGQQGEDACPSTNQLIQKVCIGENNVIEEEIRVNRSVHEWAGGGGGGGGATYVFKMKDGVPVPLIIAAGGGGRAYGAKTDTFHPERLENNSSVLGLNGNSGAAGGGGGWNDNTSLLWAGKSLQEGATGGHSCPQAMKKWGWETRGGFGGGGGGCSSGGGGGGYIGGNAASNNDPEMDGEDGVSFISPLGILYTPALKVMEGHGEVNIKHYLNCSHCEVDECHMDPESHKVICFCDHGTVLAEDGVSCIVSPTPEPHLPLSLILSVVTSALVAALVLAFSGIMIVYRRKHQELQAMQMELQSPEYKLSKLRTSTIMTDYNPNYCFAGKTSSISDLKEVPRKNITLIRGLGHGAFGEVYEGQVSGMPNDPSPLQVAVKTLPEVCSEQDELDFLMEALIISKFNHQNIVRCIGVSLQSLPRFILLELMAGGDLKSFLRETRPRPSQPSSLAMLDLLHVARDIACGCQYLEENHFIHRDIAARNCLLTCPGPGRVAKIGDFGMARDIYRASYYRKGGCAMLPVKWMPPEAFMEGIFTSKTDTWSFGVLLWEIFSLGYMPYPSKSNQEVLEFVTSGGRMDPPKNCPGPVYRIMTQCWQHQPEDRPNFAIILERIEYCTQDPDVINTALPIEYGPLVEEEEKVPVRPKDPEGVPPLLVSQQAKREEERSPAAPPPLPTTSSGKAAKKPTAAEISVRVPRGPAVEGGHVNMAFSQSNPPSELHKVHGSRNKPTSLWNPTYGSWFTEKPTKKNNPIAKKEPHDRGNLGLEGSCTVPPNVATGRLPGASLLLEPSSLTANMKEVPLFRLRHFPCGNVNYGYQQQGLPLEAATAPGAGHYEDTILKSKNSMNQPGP
# UniProt Q96GD4, whole entry: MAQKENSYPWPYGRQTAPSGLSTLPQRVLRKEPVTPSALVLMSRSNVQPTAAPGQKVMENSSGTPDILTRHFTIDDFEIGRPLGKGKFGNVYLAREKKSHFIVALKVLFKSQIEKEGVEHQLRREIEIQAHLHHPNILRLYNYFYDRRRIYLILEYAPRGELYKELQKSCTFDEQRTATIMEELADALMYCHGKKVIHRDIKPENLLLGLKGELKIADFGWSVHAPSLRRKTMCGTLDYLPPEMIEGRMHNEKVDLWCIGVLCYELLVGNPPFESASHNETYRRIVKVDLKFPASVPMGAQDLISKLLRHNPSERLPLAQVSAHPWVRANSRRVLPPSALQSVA
# UniProt P51451: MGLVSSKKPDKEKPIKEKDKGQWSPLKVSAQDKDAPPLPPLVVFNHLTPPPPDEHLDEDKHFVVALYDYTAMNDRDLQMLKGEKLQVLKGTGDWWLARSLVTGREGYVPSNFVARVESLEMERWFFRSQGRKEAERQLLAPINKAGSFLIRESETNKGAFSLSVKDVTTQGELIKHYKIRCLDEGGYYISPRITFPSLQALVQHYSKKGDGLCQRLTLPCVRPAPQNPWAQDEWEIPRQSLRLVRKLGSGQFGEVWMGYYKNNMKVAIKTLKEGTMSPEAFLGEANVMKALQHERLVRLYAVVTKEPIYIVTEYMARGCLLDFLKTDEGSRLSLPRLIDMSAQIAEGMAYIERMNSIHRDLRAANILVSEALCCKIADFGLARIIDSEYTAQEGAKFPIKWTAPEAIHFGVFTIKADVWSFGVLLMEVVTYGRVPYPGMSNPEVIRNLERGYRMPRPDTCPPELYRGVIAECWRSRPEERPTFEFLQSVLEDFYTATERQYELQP
# UniProt P51813: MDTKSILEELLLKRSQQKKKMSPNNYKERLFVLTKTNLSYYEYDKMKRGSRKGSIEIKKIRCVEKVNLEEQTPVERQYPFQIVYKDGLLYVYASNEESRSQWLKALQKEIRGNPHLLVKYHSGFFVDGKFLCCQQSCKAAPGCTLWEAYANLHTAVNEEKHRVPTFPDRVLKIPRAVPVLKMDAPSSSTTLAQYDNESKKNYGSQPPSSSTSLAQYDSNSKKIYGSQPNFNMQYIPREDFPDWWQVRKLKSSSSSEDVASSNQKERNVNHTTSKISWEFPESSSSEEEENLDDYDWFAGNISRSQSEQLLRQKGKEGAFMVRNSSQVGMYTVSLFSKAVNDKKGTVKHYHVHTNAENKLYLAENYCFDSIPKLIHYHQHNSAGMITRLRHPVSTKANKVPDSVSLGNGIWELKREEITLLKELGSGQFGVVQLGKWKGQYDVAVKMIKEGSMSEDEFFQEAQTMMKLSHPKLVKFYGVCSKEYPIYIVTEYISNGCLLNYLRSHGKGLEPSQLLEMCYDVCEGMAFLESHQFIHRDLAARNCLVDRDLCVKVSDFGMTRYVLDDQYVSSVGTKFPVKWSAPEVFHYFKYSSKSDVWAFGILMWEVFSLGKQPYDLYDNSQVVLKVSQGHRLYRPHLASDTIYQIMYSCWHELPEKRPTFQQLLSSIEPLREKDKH
# UniProt Q06187: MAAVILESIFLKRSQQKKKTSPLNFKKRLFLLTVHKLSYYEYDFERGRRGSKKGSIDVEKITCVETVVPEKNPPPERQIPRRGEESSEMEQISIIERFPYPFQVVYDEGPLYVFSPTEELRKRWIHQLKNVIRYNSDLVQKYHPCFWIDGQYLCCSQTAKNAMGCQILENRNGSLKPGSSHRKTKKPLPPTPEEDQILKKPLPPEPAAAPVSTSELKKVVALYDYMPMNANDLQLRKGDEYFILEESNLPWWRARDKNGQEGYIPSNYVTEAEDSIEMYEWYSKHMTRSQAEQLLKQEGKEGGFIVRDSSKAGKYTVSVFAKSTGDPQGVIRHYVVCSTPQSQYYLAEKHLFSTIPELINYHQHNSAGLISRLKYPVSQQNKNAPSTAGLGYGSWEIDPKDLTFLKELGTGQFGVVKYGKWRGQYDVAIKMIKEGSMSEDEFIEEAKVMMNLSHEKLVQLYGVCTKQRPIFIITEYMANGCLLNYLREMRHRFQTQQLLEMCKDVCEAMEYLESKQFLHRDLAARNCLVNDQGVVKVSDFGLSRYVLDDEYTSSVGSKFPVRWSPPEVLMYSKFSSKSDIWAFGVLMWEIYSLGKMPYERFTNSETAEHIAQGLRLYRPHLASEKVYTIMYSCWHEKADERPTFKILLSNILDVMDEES
# UniProt Q9UQM7, whole entry: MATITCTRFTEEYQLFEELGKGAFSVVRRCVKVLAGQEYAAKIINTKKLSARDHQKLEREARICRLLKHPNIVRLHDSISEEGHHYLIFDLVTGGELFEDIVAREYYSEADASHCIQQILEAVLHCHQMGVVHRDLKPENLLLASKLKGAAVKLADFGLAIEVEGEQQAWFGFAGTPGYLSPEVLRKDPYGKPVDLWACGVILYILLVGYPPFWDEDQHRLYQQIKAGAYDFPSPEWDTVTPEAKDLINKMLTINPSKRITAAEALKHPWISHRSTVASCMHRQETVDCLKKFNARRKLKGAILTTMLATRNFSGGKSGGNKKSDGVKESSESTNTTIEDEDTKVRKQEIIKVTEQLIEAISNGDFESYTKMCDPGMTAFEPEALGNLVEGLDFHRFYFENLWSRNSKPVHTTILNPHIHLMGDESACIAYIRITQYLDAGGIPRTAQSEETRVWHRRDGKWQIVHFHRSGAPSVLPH
# UniProt Q13555: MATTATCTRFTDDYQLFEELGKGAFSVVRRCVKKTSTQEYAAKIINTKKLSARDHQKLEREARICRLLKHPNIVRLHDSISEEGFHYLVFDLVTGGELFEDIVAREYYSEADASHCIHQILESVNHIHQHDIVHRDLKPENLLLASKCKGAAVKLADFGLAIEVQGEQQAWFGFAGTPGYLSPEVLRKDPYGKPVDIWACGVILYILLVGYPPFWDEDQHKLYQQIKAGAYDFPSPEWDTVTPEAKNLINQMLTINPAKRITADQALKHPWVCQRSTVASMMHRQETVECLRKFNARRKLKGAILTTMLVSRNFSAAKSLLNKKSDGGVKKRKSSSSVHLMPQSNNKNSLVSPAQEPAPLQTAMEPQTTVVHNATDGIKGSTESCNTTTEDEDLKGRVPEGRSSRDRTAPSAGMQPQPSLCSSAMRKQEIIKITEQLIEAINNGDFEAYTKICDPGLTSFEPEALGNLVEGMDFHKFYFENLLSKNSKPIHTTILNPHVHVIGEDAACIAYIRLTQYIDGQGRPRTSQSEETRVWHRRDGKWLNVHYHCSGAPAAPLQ
# UniProt Q00526: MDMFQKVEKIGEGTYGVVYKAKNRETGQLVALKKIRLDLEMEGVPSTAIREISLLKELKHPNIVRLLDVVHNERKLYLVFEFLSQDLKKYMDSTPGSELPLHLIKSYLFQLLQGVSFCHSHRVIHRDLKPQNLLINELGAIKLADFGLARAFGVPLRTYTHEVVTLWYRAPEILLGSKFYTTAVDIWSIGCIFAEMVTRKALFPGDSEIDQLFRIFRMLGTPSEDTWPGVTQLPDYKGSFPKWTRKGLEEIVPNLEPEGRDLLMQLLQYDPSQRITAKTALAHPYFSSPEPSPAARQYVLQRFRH
# UniProt P11802: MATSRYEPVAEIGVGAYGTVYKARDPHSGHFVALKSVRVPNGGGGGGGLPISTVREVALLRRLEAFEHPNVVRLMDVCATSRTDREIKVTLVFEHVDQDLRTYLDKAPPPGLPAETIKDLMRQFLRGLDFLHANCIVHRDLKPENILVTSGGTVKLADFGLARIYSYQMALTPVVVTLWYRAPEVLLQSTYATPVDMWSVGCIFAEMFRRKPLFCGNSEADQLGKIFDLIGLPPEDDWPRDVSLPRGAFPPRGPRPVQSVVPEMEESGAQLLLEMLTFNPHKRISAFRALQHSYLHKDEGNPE
# The other results are listed elsewhere or left out. Hit calls seldom repeat between salt and free forms of one compound.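 Kinases, fused to nanoluciferase, were expressed in K562 cells; luminescence was measured every 4 h from 2 to 18 h as percent of control (DMSO = 100%, positive control = 0%). A time point is decreased if signal falls significantly (2 sigma). Hits were called by the authors by a rule that is not shown; the count of time points alone does not decide it.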
# What was measured:
# Experiment in all cases: kinase-Nluc reporter destabilization hit call (1 = scored as downregulated) (binary); higher = compound decreases kinase abundance
# Settings in all cases: K562; 2-18 h
# ABL1 = ABL1 (UniProt P00519)
# AKT1 = AKT1 (UniProt P31749)
# ALK = ALK (UniProt Q9UM73)
# ARAF = ARAF (UniProt P10398)
# AURKA = AURKA (UniProt O14965)
# AURKB = AURKB (UniProt Q96GD4)
# AURKC = AURKC (UniProt Q9UQB9)
# BLK = BLK (UniProt P51451)
# BMX = BMX (UniProt P51813)
# BRAF = BRAF (UniProt P15056)
# BRAF_V600E = tested on: BRAF_V600E
# BTK = BTK (UniProt Q06187)
# CAMK2A = CAMK2A (UniProt Q9UQM7)
# CAMK2G = CAMK2G (UniProt Q13555)
# CDK10 = CDK10 (UniProt Q15131)
# CDK2 = CDK2 (UniProt P24941)
# CDK3 = CDK3 (UniProt Q00526)
# CDK4 = CDK4 (UniProt P11802)
# CDK5 = CDK5 (UniProt Q00535)
# CDK6 = CDK6 (UniProt Q00534)
Compound,kinase-Nluc reporter destabilization hit call (ABL1),kinase-Nluc reporter destabilization hit call (AKT1),kinase-Nluc reporter destabilization hit call (ALK),kinase-Nluc reporter destabilization hit call (ARAF),kinase-Nluc reporter destabilization hit call (AURKA),kinase-Nluc reporter destabilization hit call (AURKB),kinase-Nluc reporter destabilization hit call (AURKC),kinase-Nluc reporter destabilization hit call (BLK),kinase-Nluc reporter destabilization hit call (BMX),kinase-Nluc reporter destabilization hit call (BRAF),kinase-Nluc reporter destabilization hit call (BRAF_V600E),kinase-Nluc reporter destabilization hit call (BTK),kinase-Nluc reporter destabilization hit call (CAMK2A),kinase-Nluc reporter destabilization hit call (CAMK2G),kinase-Nluc reporter destabilization hit call (CDK10),kinase-Nluc reporter destabilization hit call (CDK2),kinase-Nluc reporter destabilization hit call (CDK3),kinase-Nluc reporter destabilization hit call (CDK4),kinase-Nluc reporter destabilization hit call (CDK5),kinase-Nluc reporter destabilization hit call (CDK6)
Cc1n[nH]cc1-c1cc2nc([C@@H]3CC4CCN3CC4)[nH]c(=O)c2s1 [Simurosertib] (2.5 µM),inactive: 0,inactive: 0,inactive: 0,inactive: 0,inactive: 0,inactive: 0,inactive: 0,inactive: 0,inactive: 0,inactive: 0,inactive: 0,inactive: 0,inactive: 0,inactive: 0,inactive: 0,inactive: 0,inactive: 0,inactive: 0,inactive: 0,inactive: 0
O=c1ccc2cc(O[C@@H]3O[C@H](CO)[C@@H](O)[C@H](O)[C@H]3O)c(O)cc2o1 [Esculin] (10 µM),inactive: 0,inactive: 0,inactive: 0,inactive: 0,inactive: 0,inactive: 0,inactive: 0,inactive: 0,inactive: 0,inactive: 0,inactive: 0,inactive: 0,inactive: 0,inactive: 0,inactive: 0,inactive: 0,inactive: 0,inactive: 0,inactive: 0,inactive: 0
CC(C)=CC[C@@H](OC(=O)CC(C)(C)O)C1=CC(=O)c2c(O)ccc(O)c2C1=O [β-Hydroxyisovalerylshikonin] (2.5 µM),inactive: 0,inactive: 0,inactive: 0,inactive: 0,inactive: 0,inactive: 0,inactive: 0,inactive: 0,inactive: 0,inactive: 0,inactive: 0,inactive: 0,inactive: 0,inactive: 0,inactive: 0,inactive: 0,inactive: 0,inactive: 0,inactive: 0,inactive: 0
C[S+]([O-])/C=C/CCN=C=S (stereo not given) [Sulforaphene] (10 µM),inactive: 0,inactive: 0,inactive: 0,inactive: 0,inactive: 0,inactive: 0,inactive: 0,inactive: 0,inactive: 0,inactive: 0,inactive: 0,inactive: 0,inactive: 0,inactive: 0,inactive: 0,inactive: 0,inactive: 0,inactive: 0,inactive: 0,inactive: 0
C/C=C(/C)C(=O)O[C@H]1[C@@H]2[C@H](C)C(=O)O[C@@H]2C[C@@H](C)[C@@H]2C=CC(=O)[C@]21C [Brevilin A] (2.5 µM),inactive: 0,inactive: 0,inactive: 0,inactive: 0,inactive: 0,inactive: 0,inactive: 0,inactive: 0,inactive: 0,inactive: 0,inactive: 0,inactive: 0,inactive: 0,inactive: 0,inactive: 0,inactive: 0,inactive: 0,inactive: 0,inactive: 0,inactive: 0
COc1ccc2c(c[n+](C)c3c4cc5c(cc4ccc23)OCO5)c1OC [Chelerythrine (chloride)] (10 µM),inactive: 0,inactive: 0,inactive: 0,inactive: 0,inactive: 0,inactive: 0,inactive: 0,inactive: 0,inactive: 0,inactive: 0,inactive: 0,inactive: 0,inactive: 0,active: 1,inactive: 0,inactive: 0,inactive: 0,inactive: 0,inactive: 0,inactive: 0
N#CC(C#N)=NNc1cccc(Cl)c1 (2.5 µM),inactive: 0,inactive: 0,inactive: 0,inactive: 0,inactive: 0,inactive: 0,inactive: 0,inactive: 0,inactive: 0,inactive: 0,inactive: 0,inactive: 0,inactive: 0,inactive: 0,inactive: 0,inactive: 0,inactive: 0,inactive: 0,inactive: 0,inactive: 0
COc1ccc2c(c1OC)C(OC)N(C)c1c-2ccc2cc3c(cc12)OCO3 (stereo not given) [Angoline] (10 µM),inactive: 0,inactive: 0,inactive: 0,inactive: 0,inactive: 0,inactive: 0,inactive: 0,inactive: 0,inactive: 0,inactive: 0,inactive: 0,inactive: 0,inactive: 0,inactive: 0,inactive: 0,inactive: 0,inactive: 0,inactive: 0,inactive: 0,inactive: 0
C[C@H]1CC[C@]2(NC1)O[C@H]1C[C@H]3[C@@H]4CC[C@H]5C[C@@H](O[C@@H]6O[C@H](CO)[C@H](O[C@@H]7O[C@H](CO)[C@@H](O)[C@H](O[C@@H]8OC[C@@H](O)[C@H](O)[C@H]8O)[C@H]7O[C@@H]7O[C@H](CO)[C@@H](O)[C@H](O)[C@H]7O)[C@H](O)[C@H]6O)CC[C@]5(C)[C@H]4CC[C@]3(C)[C@H]1[C@@H]2C [Tomatine] (2.5 µM),inactive: 0,inactive: 0,active: 1,inactive: 0,inactive: 0,active: 1,inactive: 0,inactive: 0,inactive: 0,inactive: 0,inactive: 0,inactive: 0,inactive: 0,inactive: 0,inactive: 0,inactive: 0,inactive: 0,inactive: 0,inactive: 0,inactive: 0

# Record cards, from the list above. Order of values: kinase-Nluc reporter destabilization hit call (ABL1) | kinase-Nluc reporter destabilization hit call (AKT1) | kinase-Nluc reporter destabilization hit call (ALK) | kinase-Nluc reporter destabilization hit call (ARAF) | kinase-Nluc reporter destabilization hit call (AURKA) | kinase-Nluc reporter destabilization hit call (AURKB) | kinase-Nluc reporter destabilization hit call (AURKC) | kinase-Nluc reporter destabilization hit call (BLK) | kinase-Nluc reporter destabilization hit call (BMX) | kinase-Nluc reporter destabilization hit call (BRAF) | kinase-Nluc reporter destabilization hit call (BRAF_V600E) | kinase-Nluc reporter destabilization hit call (BTK) | kinase-Nluc reporter destabilization hit call (CAMK2A) | kinase-Nluc reporter destabilization hit call (CAMK2G) | kinase-Nluc reporter destabilization hit call (CDK10) | kinase-Nluc reporter destabilization hit call (CDK2) | kinase-Nluc reporter destabilization hit call (CDK3) | kinase-Nluc reporter destabilization hit call (CDK4) | kinase-Nluc reporter destabilization hit call (CDK5) | kinase-Nluc reporter destabilization hit call (CDK6)
# `N#CC(C#N)=NNc1cccc(Cl)c1` (2.5 µM) in the list: inactive: 0 | inactive: 0 | inactive: 0 | inactive: 0 | inactive: 0 | inactive: 0 | inactive: 0 | inactive: 0 | inactive: 0 | inactive: 0 | inactive: 0 | inactive: 0 | inactive: 0 | inactive: 0 | inactive: 0 | inactive: 0 | inactive: 0 | inactive: 0 | inactive: 0 | inactive: 0
# `CC(C)=CC[C@@H](OC(=O)CC(C)(C)O)C1=CC(=O)c2c(O)ccc(O)c2C1=O` [β-Hydroxyisovalerylshikonin] (2.5 µM) in the list: inactive: 0 | inactive: 0 | inactive: 0 | inactive: 0 | inactive: 0 | inactive: 0 | inactive: 0 | inactive: 0 | inactive: 0 | inactive: 0 | inactive: 0 | inactive: 0 | inactive: 0 | inactive: 0 | inactive: 0 | inactive: 0 | inactive: 0 | inactive: 0 | inactive: 0 | inactive: 0
